Source: PubChem BioAssay AID1159584 (Peter MacCallum Cancer Centre, 2016)
In all, the deposit lists about 18,000 reagents; below is a part drawn at random. Not given: the amount of reagent, the time to read-out.

- Aim: 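Genes that CDH1-null MCF10A cells selectively depend on to survive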 (primary screen)
- Cell system: human MCF10A breast epithelial cells, parental and CDH1-null
- Knock-down reagent: siRNA against human genes
- Measurement: 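ATP luminescence (CellTiter-Glo) viability per line relative to mean mock wells over all plates, and the ratio of CDH1-null to parental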
- Scale: CDH1-null / parental viability ratio: higher = CDH1-null cells survive relatively better than parental; CDH1-null viability vs mock: higher = more viable CDH1-null cells; parental viability vs mock: higher = more viable parental cells

no.	Target gene	CDH1-null / parental viability ratio	CDH1-null viability vs mock (fraction of mock)	parental viability vs mock (fraction of mock)
1	DNM1	1.27	1.12	0.88
2	DEFB124	1.06	0.76	0.72
3	ZNF699	1.21	1.04	0.86
4	HSD17B12	1.05	1.1	1.05
5	TRAPPC6B	0.93	0.84	0.9
6	NEXN	1.06	0.34	0.32
7	CPQ	1.03	0.6	0.58
8	IFI6	1.17	0.82	0.7
9	MYCBPAP	0.81	0.44	0.54
10	ACBD3	0.88	0.84	0.96
11	MLKL	0.83	0.84	1.01
12	CCDC127	0.81	0.9	1.11
13	TPSD1	1.39	0.86	0.62
14	RPS27L	1.1	0.91	0.83
15	GAL3ST1	0.98	0.86	0.88
16	CCDC15	0.84	0.74	0.88
17	UBE2V2	1.07	0.98	0.92
18	FBXO41	1	0.62	0.62
19	DYNLT3	1.05	0.88	0.84
20	MAML2	1.06	0.68	0.64
21	ACACA	1.22	1.12	0.92
22	SLC17A4	1.06	0.9	0.85
23	ZNF787	1.07	0.75	0.7
24	NAA50	0.7	0.63	0.9
25	ALPK1	0.8	0.64	0.8
26	ATE1	0.87	1	1.15
27	CRISP3	1.2	0.73	0.61
28	SEZ6L2	1.26	1.06	0.84
29	CHAC2	1	0.8	0.8
30	GZMB	1	0.66	0.66
31	SLC9C2	0.93	0.87	0.94
32	TGIF2	1.04	0.77	0.74
33	ZNF615	1.22	0.9	0.74
34	C11orf40	0.9	0.64	0.71
35	GIMAP8	1.09	1.08	0.99
36	SPG21	1.05	0.84	0.8
37	DCUN1D4	0.81	0.52	0.64
38	FXN	1.14	1.15	1.01
39	TMEM237	0.87	0.52	0.6
40	ARSL	0.98	0.92	0.94
41	TSPAN1	1.12	1.12	1
42	RTP5	1.14	0.56	0.49
43	NMT2	0.9	0.86	0.96
44	TRIOBP	1.12	0.92	0.82
45	C1R	1.15	0.83	0.72
46	CIMIP7	1	0.86	0.86
47	PTPRO	1.28	0.92	0.72
48	HSD17B11	0.84	0.57	0.68
49	P2RX4	1.36	1.17	0.86
50	DROSHA	1.11	0.82	0.74
51	ADGRG2	1.42	0.88	0.62
52	BCL2L1	0.74	0.62	0.84
53	NBPF3	0.89	0.89	1
54	KLC4	0.89	0.78	0.88
55	LTO1	1.06	0.66	0.62
56	KLHL20	1.17	0.48	0.41
57	NUP188	1.1	0.86	0.78
58	FBXW11	1.09	0.94	0.86
59	ARHGEF11	0.83	0.73	0.88
60	KRT5	1.07	0.8	0.75
61	ZNF630	1.33	0.76	0.57
62	KCNJ13	1.09	0.83	0.76
63	KIN	1.45	0.81	0.56
64	PIK3R5	0.86	0.65	0.76
65	OLIG3	0.82	0.74	0.9
66	SLC39A14	1.08	0.9	0.83
67	OR52K2	0.96	0.77	0.8
68	UROS	0.82	0.75	0.92
69	HMGN4	1.58	0.6	0.38
70	SPATA25	1.25	0.95	0.76
71	ASPRV1	1.16	1	0.86
72	RND3	1.03	0.78	0.76
73	SRRD	0.97	0.65	0.67
74	NONO	1.21	0.68	0.56
75	EBI3	0.56	0.54	0.96
76	CLDN23	1.85	1.02	0.55
77	TAS2R39	0.96	0.7	0.73
78	OR52K1	1.06	0.92	0.87
79	CORO2A	1.04	0.76	0.73
80	CD84	1.17	0.88	0.75
81	ATP6V1F	1.12	0.96	0.86
82	MSRA	1.03	0.68	0.66
83	CTNNAL1	0.97	0.72	0.74
84	PDZD11	1	0.38	0.38
85	SERF2	0.93	0.52	0.56
86	GATA6	1.1	0.95	0.86
87	TCF7L2	0.98	0.84	0.86

9 consecutive reagents from above, for reference:
no.	Target gene	CDH1-null / parental viability ratio	CDH1-null viability vs mock (fraction of mock)	parental viability vs mock (fraction of mock)
15	GAL3ST1	0.98	0.86	0.88
16	CCDC15	0.84	0.74	0.88
17	UBE2V2	1.07	0.98	0.92
18	FBXO41	1	0.62	0.62
19	DYNLT3	1.05	0.88	0.84
20	MAML2	1.06	0.68	0.64
21	ACACA	1.22	1.12	0.92
22	SLC17A4	1.06	0.9	0.85
23	ZNF787	1.07	0.75	0.7
